In patent US20230330254A1 (Regeneron Pharmaceuticals, Inc., priority 2022, published 2023):
For some assays here: Part of at least one peptide drawing is inferred or uncertain, most often the ends. For some assays here: For at least one compound, name, drawing or mass did not settle the structure. Some entries share one result that the patent states for a list of compounds.

Protein sequences, listed by entry. Tags and fused reporters are not part of them. Residues count along the entry.
UniProt P43220, 24-463: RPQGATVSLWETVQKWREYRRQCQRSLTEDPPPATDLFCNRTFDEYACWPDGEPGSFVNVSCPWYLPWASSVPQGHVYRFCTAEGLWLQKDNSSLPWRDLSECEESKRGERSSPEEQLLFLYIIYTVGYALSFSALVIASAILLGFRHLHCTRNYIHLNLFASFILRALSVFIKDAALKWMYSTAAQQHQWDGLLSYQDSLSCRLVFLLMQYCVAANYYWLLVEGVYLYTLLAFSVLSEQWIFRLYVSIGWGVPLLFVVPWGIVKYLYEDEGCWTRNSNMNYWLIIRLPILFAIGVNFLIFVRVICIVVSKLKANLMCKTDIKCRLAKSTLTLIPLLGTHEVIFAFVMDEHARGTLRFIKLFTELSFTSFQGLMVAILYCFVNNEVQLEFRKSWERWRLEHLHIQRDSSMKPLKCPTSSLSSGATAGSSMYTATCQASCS
UniProt P47871, 26-477: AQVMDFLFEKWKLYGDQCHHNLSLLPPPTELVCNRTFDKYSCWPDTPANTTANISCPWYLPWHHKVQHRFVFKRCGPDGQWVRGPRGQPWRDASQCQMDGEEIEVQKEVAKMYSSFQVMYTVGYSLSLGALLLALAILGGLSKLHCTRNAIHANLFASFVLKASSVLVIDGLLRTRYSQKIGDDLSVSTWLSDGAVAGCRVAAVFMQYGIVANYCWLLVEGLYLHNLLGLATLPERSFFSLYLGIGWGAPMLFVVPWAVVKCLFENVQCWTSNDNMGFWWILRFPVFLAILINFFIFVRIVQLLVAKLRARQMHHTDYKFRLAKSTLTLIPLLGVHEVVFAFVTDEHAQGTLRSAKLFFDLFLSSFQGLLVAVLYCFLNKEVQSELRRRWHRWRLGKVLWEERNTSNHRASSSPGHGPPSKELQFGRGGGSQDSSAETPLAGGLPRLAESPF
UniProt F8V479, 24-463: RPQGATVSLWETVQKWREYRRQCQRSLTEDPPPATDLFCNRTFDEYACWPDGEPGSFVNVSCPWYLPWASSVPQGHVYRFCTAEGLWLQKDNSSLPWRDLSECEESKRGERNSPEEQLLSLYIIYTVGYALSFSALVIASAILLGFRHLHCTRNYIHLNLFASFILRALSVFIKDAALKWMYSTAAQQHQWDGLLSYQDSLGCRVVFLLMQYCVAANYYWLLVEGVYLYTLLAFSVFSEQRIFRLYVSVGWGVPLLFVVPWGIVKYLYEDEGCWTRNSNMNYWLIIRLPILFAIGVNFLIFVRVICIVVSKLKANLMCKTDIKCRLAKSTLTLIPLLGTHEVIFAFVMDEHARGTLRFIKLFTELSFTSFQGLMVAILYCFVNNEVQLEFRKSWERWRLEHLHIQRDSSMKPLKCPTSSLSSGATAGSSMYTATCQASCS

Legend:
human GLP1R [1] = target: T1, human GLP1R (Homo sapiens, UniProt P43220); assay: CRE-Luc cAMP reporter assay, HEK293/CRE-Luc/hGLP1R (Example 24); type: cell-based; design: engineered to express full-length human GLP1R, cynomolgus GLP1R; expressed in transfected cells; host or cells: HEK293/CRE-Luc; conditions: 5-hour incubation; text b1912, b1913; read-out: CRE-dependent luciferase reporter EC50, HEK293/CRE-Luc/hGLP1R
Excerpt: To test the activity of GLP1R agonist payloads, GLP1R agonist linker-payloads (LPs), and anti-GLP1R antibody-tethered ligands (ATLs) of the invention, a cell-based cAMP responsive luciferase reporter assay was developed. To generate the assay cell line, the firefly luciferase gene was placed under the control of a cAMP response element (CRE) located upstream of a minimal promoter and transfected into HEK293 cells and referred to herein as HEK293/CRE-Luc cells. HEK293/CRE-Luc cells were then engineered to express full-length human GLP1R (HEK293/CRE-Luc/hGLP1R), cynomolgus GLP1R (HEK293/CRE-Luc/mfGLP1R), or mouse GLP1R (HEK293/CRE-Luc/mGLP1R).
Serial dilutions of free payload and linker payloads (LP) were performed in 100% DMSO (ATCC, #4-X-5), followed by 1:100 dilution in assay media. Test articles were added to cells (1:5 dilution) with the last well in each serial dilution series serving as a blank control containing only assay media for antibodies and ATLs or assay media with 0.2% DMSO for payloads and LPs. After a 5-hour incubation at 37° C., luciferase activity was determined by addition of ONE-Glo reagent (Promega, #E6130) followed by measurement of relative light units (RLUs) on an EnVision Plate Reader (Perkin Elmer).
(§1) EC50 values for luminescence assays were determined using a four-parameter logistic equation over a 12-point dose response curve (GraphPad Prism).

[2] = target: T2, human glucagon receptor (GCGR) (Homo sapiens, UniProt P47871); assay: Luciferase reporter assay, HEK293/CRE-Luc/hGCGR (Example 17); type: cell-based; conditions: Table 28; CRE-dependent luciferase reporter activity
T2 construct: full-length human GLP1R, cynomolgus GLP1R, human glucagon receptor (GCGR); expressed in transfected cells; host or cells: HEK293/CRE-Luc

[3] = target: T3, human gastric inhibitory polypeptide receptor (GIPR) (Homo sapiens, UniProt P48546); assay: Luciferase reporter assay, HEK293/CRE-Luc/hGIPR (Example 17); type: cell-based; design: expressed in transfected cells; host or cells: HEK293/CRE-Luc; conditions: Table 28; CRE-dependent luciferase reporter activity; read-out: HEK293/CRE-Luc/hGlPR EC50
T3 sequence (P48546 22-466): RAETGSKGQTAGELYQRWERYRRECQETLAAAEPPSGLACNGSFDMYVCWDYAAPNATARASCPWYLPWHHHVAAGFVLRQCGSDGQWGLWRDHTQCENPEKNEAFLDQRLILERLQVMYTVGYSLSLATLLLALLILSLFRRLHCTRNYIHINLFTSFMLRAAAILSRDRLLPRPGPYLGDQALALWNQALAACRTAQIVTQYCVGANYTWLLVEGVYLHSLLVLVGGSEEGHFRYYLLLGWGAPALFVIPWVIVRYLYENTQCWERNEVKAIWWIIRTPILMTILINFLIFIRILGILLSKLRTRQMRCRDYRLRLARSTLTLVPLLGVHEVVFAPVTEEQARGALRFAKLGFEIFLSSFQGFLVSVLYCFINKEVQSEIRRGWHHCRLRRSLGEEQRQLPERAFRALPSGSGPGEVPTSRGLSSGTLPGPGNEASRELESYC
Excerpt: (§2) To test the activity of GLP1R agonist payloads, GLP1R agonist linker-payloads (LPs), and anti-GLP1R antibody tethered drug conjugates (ATDCs) of the invention, a cell-based cAMP responsive luciferase reporter assay was developed. To generate the assay cell line, the firefly luciferase gene was placed under the control of a cAMP response element (CRE) located upstream of a minimal promoter and transfected into HEK293 cells and referred to herein as HEK293/CRE-Luc cells.
(§3) Three-fold serial dilutions of free payloads or LPs were prepared in 100% DMSO, transferred to fresh assay media, and added to the cells at a final constant DMSO concentration of 0.2%. The last well in the plate served as a blank control containing only the assay media and 0.2% DMSO (untreated well) and was plotted as a continuation of the 3-fold serial dilution. Four to six hours later, luciferase activity was determined after the addition of One-Glo™ reagent (Promega, Cat #E6130) to each well. Relative light units (RLUs) were measured on an Envision luminometer (PerkinElmer) and EC50 values were determined using a four-parameter logistic equation over a 12-point dose response curve (GraphPad Prism). The signal to noise (S/N) was determined by taking the ratio of the highest RLU on the dose response curve to the RLU in the untreated wells. […]

human GLP1R [4] = target: T1, human GLP1R; assay: b-arrestin 2 recruitment assay, PathHunter CHO/b-arrestin 2/hGLP1R cells; type: cell-based; conditions: text b1912, b1913
Protocol: The b-arrestin 2 recruitment assay was performed following manufacter's instructions (Eurofins DiscoverX, #93-0300E2CP0M), with minor modifications. […] Serial dilutions of free payload and LP were performed in 100% DMSO, followed by 1:100 dilution in assay media. Test articles were added to cells (1:5 dilution) with the last well in each serial dilution series serving as a blank control containing only assay media for antibodies and ATLs or assay media with 0.2% DMSO for payload and LP. After a 90-minute incubation at 37° C., PathHunter Detection Reagent (Eurofins DiscoverX, #93-0300E2CP0M) was added to the wells followed by a 1-hour incubation at room temperature. RLUs were measured on EnVision Plate Reader (Perkin Elmer).
as §1

cynomolgus GLP1R = target: T4, cynomolgus GLP1R (Macaca fascicularis, UniProt F8V479); assay: Luciferase reporter assay, HEK293/CRE-Luc/mfGLP1R (Example 17); type: cell-based; conditions: Table 28; CRE-dependent luciferase reporter activity
T4 construct: engineered to express full-length human GLP1R, cynomolgus GLP1R; expressed in transfected cells; host or cells: HEK293/CRE-Luc

human GLP1R [5] = target: T1, human GLP1R; assay: Luciferase reporter assay, HEK293/CRE-Luc/hGLP1R (Example 17); type: cell-based; design: engineered to express full-length human GLP1R, cynomolgus GLP1R; expressed in transfected cells; host or cells: HEK293/CRE-Luc
Excerpt: as §2
Three-fold serial dilutions of free payloads or LPs were prepared in 100% DMSO, transferred to fresh assay media, and added to the cells at a final constant DMSO concentration of 0.2%. The last well in the plate served as a blank control containing only the assay media and 0.2% DMSO (untreated well) and was plotted as a continuation of the 3-fold serial dilution. Four to six hours later, luciferase activity was determined after the addition of One-Glo™ reagent (Promega, Cat #E6130) to each well. Relative light units (RLUs) were measured on an Envision luminometer (PerkinElmer) and EC50 values were determined using a four-parameter logistic equation over a 12-point dose response curve (GraphPad Prism). The signal to noise (S/N) was determined by taking the ratio of the highest RLU on the dose response curve to the RLU in the untreated wells. Data was generated across several experiments (A-E) with M2361 serving as a reference standard in each experiment to calculate the payload relative potency ((M2361 EC50/payload EC50)*100)) and relative S/N ((payload SN/M2361 SN)*100)).

[6] = target: T5, human glucagon-like peptide 2 receptor (GLP2R) (Homo sapiens, UniProt O95838); assay: Luciferase reporter assay, HEK293/CRE-Luc/hGLP2R (Example 17); type: cell-based; conditions: Table 28; CRE-dependent luciferase reporter activity
T5 construct: full-length human GLP1R, cynomolgus GLP1R, human glucagon receptor (GCGR), human glucagon-like peptide 2 receptor (GLP2R); expressed in transfected cells; host or cells: HEK293/CRE-Luc
T5 sequence (O95838 1-553): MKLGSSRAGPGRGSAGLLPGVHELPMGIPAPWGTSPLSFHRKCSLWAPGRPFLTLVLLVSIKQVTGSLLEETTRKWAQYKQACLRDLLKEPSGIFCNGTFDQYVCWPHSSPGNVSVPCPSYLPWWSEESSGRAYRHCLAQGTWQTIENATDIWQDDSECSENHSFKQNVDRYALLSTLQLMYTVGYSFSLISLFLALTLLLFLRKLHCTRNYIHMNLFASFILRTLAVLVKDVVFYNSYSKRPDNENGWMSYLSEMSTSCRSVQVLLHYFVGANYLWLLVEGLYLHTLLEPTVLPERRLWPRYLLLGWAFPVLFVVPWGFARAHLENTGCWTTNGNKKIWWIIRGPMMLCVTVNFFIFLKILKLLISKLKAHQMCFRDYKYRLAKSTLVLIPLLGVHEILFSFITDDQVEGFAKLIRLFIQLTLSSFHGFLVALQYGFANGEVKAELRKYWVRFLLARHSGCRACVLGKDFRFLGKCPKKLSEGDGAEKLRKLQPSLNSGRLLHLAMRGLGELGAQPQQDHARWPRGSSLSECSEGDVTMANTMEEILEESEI

HEK293/CRE-Luc cells = assay: Luciferase reporter assay, HEK293/CRE-Luc cells without GLP1R (Example 17); type: cell-based, human; conditions: HEK293/CRE-Luc cells without hGLP1R; payloads and linker-payloads
Excerpt: as §2, §3

[7] = HEK293/CRE-Luc/hGLP1R, relative to M2361 of the same experiment

CCc1cc(OCCCCN=[N+]=[N-])ccc1-c1ccc(C[C@H](NC(=O)[C@H](CC(=O)O)NC(=O)[C@H](CO)NC(=O)[C@@H](NC(=O)[C@](C)(Cc2ccccc2F)NC(=O)[C@@H](NC(=O)CNC(=O)[C@H](Cc2nn[nH]n2)NC(=O)C(C)(C)C(=O)NCCc2cnc[nH]2)[C@@H](C)O)[C@@H](C)O)C(=O)N[C@@H](CCCc2cc(C)cc(C)c2)C(N)=O)cc1 [M2361]
EC50 (human GLP1R [1]): 0.0222 nM
EC50 [2]: > 200 nM
EC50 [3]: > 200 nM
EC50 (human GLP1R [4]): 6.67 nM
EC50 (cynomolgus GLP1R): 0.0104 nM
EC50 (human GLP1R [5]; Table 28, CRE-dependent luciferase reporter activity, read-out: HEK293/CRE-Luc/hGLP1R EC50): 0.00541 nM
EC50 [6]: > 200 nM

CCc1cc(OCCCCN)ccc1-c1ccc(C[C@H](NC(=O)[C@H](CC(=O)O)NC(=O)[C@H](CO)NC(=O)[C@@H](NC(=O)[C@](C)(Cc2ccccc2F)NC(=O)[C@@H](NC(=O)CNC(=O)[C@@H](N)CCC(N)=O)[C@@H](C)O)[C@@H](C)O)C(=O)N[C@@H](CCCc2cc(C)cc(C)c2)C(N)=O)cc1 [M2913]
EC50 (human GLP1R [5]; HEK293/CRE-Luc/hGLP1R, payloads and linker-payloads, experiments A-E, M2361 repeated in each, read-out: EC50): > 200 nM
EC50 (human GLP1R [5]; text b1830, read-out: EC50 in HEK293/CRE-Luc/hGLP1R cells): > 20 nM

CCc1cc(OCCCCNC(=O)CCOCCOCCOCCOCCOCCOCCOCCOCCOCCOCCOCCOCCOCCOCCOCCOCCOCCOCCOCCOCCOCCOCCOCCOCCNC(=O)CCC(=O)N2Cc3ccccc3C#Cc3ccccc32)ccc1-c1ccc(C[C@H](NC(=O)[C@H](CC(=O)O)NC(=O)[C@H](CO)NC(=O)[C@@H](NC(=O)[C@](C)(Cc2ccccc2F)NC(=O)[C@@H](NC(=O)CNC(=O)[C@H](Cc2nn[nH]n2)NC(=O)CCCCCc2cnc[nH]2)[C@@H](C)O)[C@@H](C)O)C(=O)N[C@@H](CCCc2cc(C)cc(C)c2)C(N)=O)cc1 [M2944]
S/N (human GLP1R [5]; HEK293/CRE-Luc/hGLP1R, highest RLU / RLU of untreated wells): 8.2
Relative Potency (% M2361 EC50) (human GLP1R [5]; [7]): 0.0%
Relative Signal:Noise (% M2361) (human GLP1R [5]; [7]): 11.4%
EC50 (HEK293/CRE-Luc cells): > 20 nM
S/N (HEK293/CRE-Luc cells): 1.5
